# Results are given in words; binding and its absence hold for the method and conditions named. In cells and extracts the contact can be indirect. A result given as binding can be weak or reduced; the word gives no strength.
# B1: Neurogenin 2 (Neurog2), endogenous (protein, UniProt Q9YH82 1-213)
# chain: MPVKAESPAPAAEDELLLLRLASPAPSASLPSSAGEEDEDEEDGRPRRLQEGARRAGRQRGPPRAARTAETAQRIKRSRRLKANNRERNRMHNLNAALDALRDVLPTFPEDAKLTKIETLRFAHNYIWALTETLRLAGAARLGGAADAAPGAAAEGSPSPASSWSGGASPAPSASPYACTLSPGSPAGSASDAEHWPPPRGRFAPPPPPHRCL
# Biological target: Fbxo9 mutant lacking the F-box motif (Fbxo9ΔF), V5-tagged
# Test: co-IP; lysates of well-transfected chicken embryos (n = 10 per treatment); IP with anti-V5, blotted with anti-Neurog2
binder,measurement,value
B1,binding,binds

# — PMC7049171
